Assay results taken from US5321043A, “Method of combatting transplant rejection” (The University of Melbourne, priority 1992, dated 1994).
At least one structure is not confirmed: it was looked up by name or label, or the drawing left a doubt.

How the values were obtained:
[1] = system: MLC response of responder lymphocytes to irradiated EBV-transformed lymphoblastoid cells; test: Mixed lymphocyte culture (MLC) suppression by CyA and PG analogues, alone and combined (tritiated thymidine uptake); type: cell-based, human; conditions: single agent
Procedure: Heparinised blood was obtained from five healthy donors without history of previous blood transfusion, pregnancy, or organ transplantation.
Prostaglandin (PG) analogues PGE1, PGE2, PGF2a, and PGI2 were supplied by the Upjohn Company (Kalamazoo, Mich.) in the form of 15-(s)-15-methyl PGE1, 16,16-dimethyl PGE2, 16,16-dimethyl PGF2α, and 9-deoxy-2,9a-methano-3-oxa-4,5,6-trinor-3,7-(1', 3'-interphenylene)-13,14'-dihydroprostaglandin FI (Compound A). Each was provided in methyl acetate at 10 mg/mL that was subsequently diluted, first with ethyl alcohol to a concentration of 1 mg/mL and thereafter with physiological saline to the concentration range required for the study, 10.0-0.001 μg/mL.
Responder lymphocytes were isolated from the healthy donor heparinised blood by density gradient separation and suspended in glutamine, antibiotic-supplemented RPMI medium containing 10% autologous responder lymphocyte donor serum at a concentration of 1 ×10^6 cells/mL. The stimulator population consisted of Epstein-Barr virus (EBV)-transformed lymphoblastoid cells that were irradiated (130 Gy) before suspension also at 1×10^6 cells/mL in glutamine, antibiotic-supplemented RPMI medium that contained 10% autologous responder lymphocyte donor serum.
Equal volumes (0.1 mL) of responder and stimulator cells were incubated in triplicate wells of microtitre trays with each of the following: […]

renal allograft = test: Rabbit renal allograft survival; type: in vivo; conditions: Compound A 50 μg/kg/day subcutaneously for seven days, no CyA
Procedure: Left orthotopic renal transplantation was performed from New Zealand White rabbit donors into Anglo lop-ear recipients. See D. Francis et al., Aust. N. Z. J. Surgery 60, 45, 1990. Contralateral nephrectomy and graft biopsy were performed on the first post-operative day. Each recipient was subsequently dependent on its transplant for renal function. Serum creatinine (sCr) was measured every 48 hours and animals were culled once sCr had risen above 1.2 mMoles/1, taken as an arbitrary end-point representing graft failure. Graft biopsies were performed weekly and post-mortem to ensure that graft loss was secondary to rejection. Standard haematoxylin and eosin and Masson's trichrome stains were performed.
Compound A was provided as a powder which was dissolved in absolute ethanol to yield a 1 mg/ml solution. 50 μg/kg/day was administered subcutaneously for seven days commencing perioperatively. Ethanol (50 μl/kg/day) was administered in vehicle-only control animals.

Row | Structure (SMILES) | minimum concentration which alone induced 50% MLC inhibition [1] [µg/mL] | Graft Survival (d), individual animals (renal allograft)
1 | CCCCC[C@H](O)CC[C@@H]1[C@H]2Cc3cccc(OCC(=O)O)c3C[C@H]2C[C@H]1O [Compound A, 9-deoxy-2',9α-methano-3-oxa-4,5,6-trinor-3,7-(1',3'-interphenylene)-13, 14--dihydro-prostaglandinF1] | 0.1 | 13, 13, 13, 14, 15, 21 d
2 | CCCCC(C)(C)[C@H](O)/C=C/[C@H]1[C@H](O)CC(=O)[C@@H]1C/C=C\CCCC(=O)O [PGE2, 16,16-dimethyl PGE2] | 1.0 | –
